PubChem BioAssay AID1159578 – Peter MacCallum Cancer Centre, 2015
In all, the deposit lists about 18,000 reagents; below is a part drawn at random. About 1,030 of all reagents (5.7%) were called active. 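Inactive calls also include pools with fewer than 3300 nuclei, whose migration was not assessed.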 Raw values are not corrected between plates. Further read-outs or replicates are left out here. No sequences are given here.

Purpose: 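siRNA pools altering how lymphatic endothelial cells close a scratch wound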 (primary screen)
System: human lymphatic endothelial cells
Reagent: siRNA pool against human genes, 40 nM
Time to read-out: 48 h after transfection
Detection: 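Cells stained with dye and imaged after a scratch; covered wound area and nuclei counted, duplicates averaged, migration set against mock wells and turned into a robust z-score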
Scale: migration robust z-score: higher = faster migration into the scratch; nuclei per well: higher = more cells in the well
Call rule: 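Pools averaging fewer than 3300 nuclei are never called; remaining pools count as changed when migration robust z lies outside -2 to 2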
Meaning of the calls: active = migration changed; inactive = no migration change, or too few cells

For NSMAF (neutral sphingomyelinase activation associated factor) [SID255353552] the deposit lists migration robust z-score 0.19; migration class with cell-count check migration z between -2 and 2; enough cells; nuclei per well, duplicate mean 5277; inactive.
ZNF593 (zinc finger protein 593) [SID255357428] showed migration robust z-score -0.18; migration class with cell-count check migration z between -2 and 2; enough cells; nuclei per well, duplicate mean 5514; inactive.
TST (thiosulfate sulfurtransferase) [SID255352988] gave migration robust z-score -0.36; migration class with cell-count check under 3300 nuclei; migration not judged; nuclei per well, duplicate mean 3145; inactive.
Silencing of NIPSNAP2 (nipsnap homolog 2) [SID255349842] came out at: migration robust z-score 1.69; migration class with cell-count check migration z between -2 and 2; enough cells; nuclei per well, duplicate mean 5752; inactive.
For PPIA (peptidylprolyl isomerase A) [SID255351722], the values are migration robust z-score 3.55; migration class with cell-count check migration z above 2; enough cells; nuclei per well, duplicate mean 5470; active.
CMTM3 (CKLF like MARVEL transmembrane domain containing 3) [SID255362597] showed migration robust z-score -1.52; migration class with cell-count check migration z between -2 and 2; enough cells; nuclei per well, duplicate mean 3328; inactive.
With knock-down of GAREM1 (GRB2 associated regulator of MAPK1 subtype 1) [SID255359981], the screen gave migration robust z-score 2.85; migration class with cell-count check migration z above 2; enough cells; nuclei per well, duplicate mean 5954; active.
With knock-down of SCN1B (sodium voltage-gated channel beta subunit 1) [SID255352300], the record shows migration robust z-score -2.54; migration class with cell-count check migration z below -2; enough cells; nuclei per well, duplicate mean 3440; active.
For MGAM (maltase-glucoamylase) [SID255353944] the deposit lists migration robust z-score 0; migration class with cell-count check migration z between -2 and 2; enough cells; nuclei per well, duplicate mean 6302; inactive.
Depletion of KCTD8 (potassium channel tetramerization domain containing 8) [SID255365409] gave: migration robust z-score 1.68; migration class with cell-count check migration z between -2 and 2; enough cells; nuclei per well, duplicate mean 5838; inactive.
Silencing of NCKAP1 (NCK associated protein 1) [SID255355353] resulted in: migration robust z-score 0.22; migration class with cell-count check migration z between -2 and 2; enough cells; nuclei per well, duplicate mean 5688; inactive.
Knock-down of CMIP (c-Maf inducing protein) [SID255360818] resulted in: migration robust z-score -0.8; migration class with cell-count check migration z between -2 and 2; enough cells; nuclei per well, duplicate mean 5792; inactive.
Silencing of GABRG1 (gamma-aminobutyric acid type A receptor subunit gamma1) [SID255349799] resulted in: migration robust z-score -0.31; migration class with cell-count check migration z between -2 and 2; enough cells; nuclei per well, duplicate mean 6478; inactive.
OXGR1 (oxoglutarate receptor 1) [SID255356973] gave migration robust z-score -0.88; migration class with cell-count check migration z between -2 and 2; enough cells; nuclei per well, duplicate mean 5917; inactive.

Part of the list above in another layout.
| Gene | PubChem SID | migration robust z-score | migration class with cell-count check | nuclei per well, duplicate mean | outcome |
| --- | --- | --- | --- | --- | --- |
| CMIP (c-Maf inducing protein) | SID255360818 | -0.8 | migration z between -2 and 2; enough cells | 5792 | inactive |
| GABRG1 (gamma-aminobutyric acid type A receptor subunit gamma1) | SID255349799 | -0.31 | migration z between -2 and 2; enough cells | 6478 | inactive |
